PubChem BioAssay AID602196, INSERM, 2012

Aim: 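Genes whose knock-down alters cisplatin killing of lung cancer cells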
Cells: human A549 lung cancer cells
Reagent: siRNA pair against human genes
Timing: 48 h transfection before cisplatin; time from cisplatin to read-out not stated
Treatment: cisplatin at a dose killing half of control-siRNA cells; exact dose and duration not given
Detection: 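Cisplatin cell death as a shift from the 50% death seen with control siRNA; siRNAs toxic or growth-blocking alone scored 0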
Scale: two-siRNA summed score (-2 to +2): higher = both siRNAs protect from cisplatin killing; -2 means both sensitise; mean protection from cisplatin (shift in death) and protection from cisplatin (shift in death), siRNA C and protection from cisplatin (shift in death), siRNA D: higher = protection from cisplatin killing
Hit rule: 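Each siRNA scores 0 if harmful alone by LDH or WST-1, otherwise +1 if it reduces and -1 if it increases cisplatin killing; a gene is active when both siRNAs agree (sum +2 or -2)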
Meaning of the calls: active = both siRNAs shift cisplatin killing the same way; inactive = no consistent shift, or siRNA harmful alone
In all, the deposit lists about 23,000 reagents; this is an unselected part. 455 of them (2%) were called active. 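Active includes both protection and sensitisation; some change values fall well beyond the stated -50 to +50 range.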 A number with no mark means an inactive call. The numbers tell different reagents against one gene apart. The record does not give: the amount of reagent.

| Gene | reagent no. | two-siRNA summed score (-2 to +2) | mean protection from cisplatin (shift in death) (%) | protection from cisplatin (shift in death), siRNA C (%) | protection from cisplatin (shift in death), siRNA D (%) |
| --- | --- | --- | --- | --- | --- |
| IL12B-AS1 (GeneID 285626) | 1 | 1 | 20.8 | 23.4 | 18.2 |
| ORC5 (GeneID 5001) | 1 | 0 | -16.2 | -33 | 0.5 |
| RAG2 (GeneID 5897) | 1 | 1 | 13.8 | 23.8 | 3.7 |
| CIMAP1C (GeneID 161753) | 1 | 1 | 13.6 | 0.1 | 27 |
| CIAO2B (GeneID 51647) | 1 | 0 | -2 | -2.3 | -1.6 |
| TNFSF11 (GeneID 8600) | 1 | 0 | 8.4 | 16.5 | 0.3 |
| LOC440408 | 1 | 1 | 12.8 | 7.7 | 17.9 |
| CDC42BPB (GeneID 9578) | 1 | 1 | 11.2 | 27.4 | -5 |
| CDS1 (GeneID 1040) | 1 | 0 | 10.6 | 12.7 | 8.6 |
| FAM177B (GeneID 400823) | 1 | -1 | -2.3 | -13.6 | 9 |
| IFIT1B (GeneID 439996) | 1 | 0 | 11.4 | 14.6 | 8.2 |
| LOC344165 | 1 | 1 | 7.8 | 1.5 | 14 |
| CINP (GeneID 51550) | 1 | 0 | 0.5 | 1.9 | -0.9 |
| FKBP10 (GeneID 60681) | 1 | 0 | -9.8 | -26.5 | 6.9 |
| TRIP6 (GeneID 7205) | 1 | 0 | -16.3 | -23.5 | -9 |
| ODAD2 (GeneID 55130) | 1 | 0 | 5 | 11.7 | -1.8 |
| ZDHHC14 (GeneID 79683) | 1 | 0 | 3.5 | 2.5 | 4.4 |
| PM20D2 (GeneID 135293) | 1 | 1 | 4.1 | 17 | -8.8 |
| LARP7 (GeneID 51574) | 1 | 1 | 8.4 | 19.1 | -2.3 |
| SPN (GeneID 6693) | 1 | 0 | -4.3 | -21.6 | 13 |
| GASK1B (GeneID 51313) | 1 | 0 | -5.7 | -8.2 | -3.2 |
| CARMIL3 (GeneID 90668) | 1 | 0 | 3.9 | 5.3 | 2.5 |
| RECQL5 (GeneID 9400) | 1 | 0 | 7.1 | 17.7 | -3.6 |
| GPR108 (GeneID 56927) | 1 | 0 | -3.4 | 3.5 | -10.4 |
| LOC388248 (GeneID 388248) | 1 | -1 | -4.5 | -13.9 | 4.8 |
| CD2AP (GeneID 23607) | 1 | -1 | -19.5 | -6.2 | -32.7 |
| ANKRD23 (GeneID 200539) | 1 | -2 (active) | -11.6 | -11 | -12.3 |
| LOC389710 | 1 | 1 | 20 | 2.8 | 37.2 |
| DOP1A (GeneID 23033) | 1 | 0 | 0.6 | -4.9 | 6.1 |
| APRG1 (GeneID 339883) | 1 | 0 | 20.1 | 18.1 | 22.1 |
| GFOD1 (GeneID 54438) | 1 | 0 | 16.2 | 16.1 | 16.2 |
| GFOD1 (GeneID 54438) | 2 | 1 | 8.7 | 2.9 | 14.5 |
| ATPAF1 (GeneID 64756) | 1 | 0 | -10.6 | -12.8 | -8.4 |
| FCGR3B (GeneID 2215) | 1 | 0 | -1.4 | -5.6 | 2.8 |
| FANCM (GeneID 57697) | 1 | 0 | 2.1 | 0.2 | 4 |
| LOC440402 | 1 | 0 | 8.8 | 9.5 | 8.1 |
| SAMD1 (GeneID 90378) | 1 | 0 | -0.5 | -2.2 | 1.1 |
| LOC390577 | 1 | 1 | 9.7 | 15.9 | 3.5 |
| CHRNB3 (GeneID 1142) | 1 | 0 | 4.6 | -0.6 | 9.8 |
| IGSF9B (GeneID 22997) | 1 | 0 | 6.7 | 5.1 | 8.2 |
| ESR1 (GeneID 2099) | 1 | 0 | 0.4 | -2.3 | 3.2 |
| EDEM2 (GeneID 55741) | 1 | 0 | -3.3 | -8.4 | 1.8 |
| ADD2 (GeneID 119) | 1 | 0 | -0.7 | -12.2 | 10.8 |
| LOC164714 | 1 | 0 | 14.5 | 8.7 | 20.3 |
| HTR1D (GeneID 3352) | 1 | 0 | -3.2 | -4.5 | -1.9 |
| EML3 (GeneID 256364) | 1 | 1 | 3 | -4.2 | 10.2 |
| SAP130 (GeneID 79595) | 1 | 0 | 0.9 | 9.4 | -7.5 |
| AGRN (GeneID 375790) | 1 | 0 | 10.9 | 13.5 | 8.4 |
| LOC339209 | 1 | 1 | 11.8 | 8.2 | 15.4 |
| SPSB1 (GeneID 80176) | 1 | 1 | 15.3 | 1.8 | 28.8 |
| ASB3 (GeneID 51130) | 1 | 0 | -17.4 | -13.8 | -21.1 |
| LOC401440 | 1 | 0 | 3.8 | 7.6 | 0.1 |
| HLA-DPB1 (GeneID 3115) | 1 | 0 | 3.7 | 1.5 | 6 |
| TCF15 (GeneID 6939) | 1 | 0 | -9.9 | -5.9 | -13.8 |
| LOC442118 | 1 | 1 | 7.9 | 0.4 | 15.5 |
| CLIC4 (GeneID 25932) | 1 | -1 | -12 | -13.9 | -10.1 |
| LOC401610 | 1 | -1 | -2.1 | -11.8 | 7.6 |
